The source of these data is PMC6016017.

Results are given in words; binding and its absence hold for the method and conditions named. For some of these results: Binding seen in cells or lysates may run through a third protein. Some binding calls cover weakened binding; strength is not graded here. Where a sequence is shown, tags or fusion partners need not be part of it.

The target of assay [1] is T1, Arabidopsis ATG6 (VPS30/Beclin1), split-YFP fusion (nYFP or cYFP) for BiFC (Arabidopsis thaliana) (UniProt Q9M367).
T1 sequence: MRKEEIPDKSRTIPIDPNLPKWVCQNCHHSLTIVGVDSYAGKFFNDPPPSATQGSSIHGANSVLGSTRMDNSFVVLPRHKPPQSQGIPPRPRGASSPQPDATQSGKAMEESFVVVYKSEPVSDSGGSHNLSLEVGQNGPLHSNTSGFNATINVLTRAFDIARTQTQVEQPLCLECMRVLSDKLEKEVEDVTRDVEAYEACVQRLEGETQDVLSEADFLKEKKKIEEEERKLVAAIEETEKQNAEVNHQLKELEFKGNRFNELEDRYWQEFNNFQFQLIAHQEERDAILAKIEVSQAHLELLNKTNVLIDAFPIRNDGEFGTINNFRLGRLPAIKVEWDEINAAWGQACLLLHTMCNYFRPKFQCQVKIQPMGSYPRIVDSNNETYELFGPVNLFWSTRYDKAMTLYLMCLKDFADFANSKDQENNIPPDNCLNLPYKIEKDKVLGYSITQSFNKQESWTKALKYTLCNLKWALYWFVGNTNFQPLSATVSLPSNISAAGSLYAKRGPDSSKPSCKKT
Nature of the assay: split reporter; BiFC with nYFP (1-174) and cYFP (175-239) fusions transiently co-expressed in N. benthamiana leaf epidermal cells; confocal microscopy 36 h after infiltration.

Assay [2] addresses T2, Arabidopsis VPS38, split-ubiquitin fusion (Cub-PLV bait or NubG prey) (Arabidopsis thaliana) (UniProt Q8S9J3).
T2 sequence: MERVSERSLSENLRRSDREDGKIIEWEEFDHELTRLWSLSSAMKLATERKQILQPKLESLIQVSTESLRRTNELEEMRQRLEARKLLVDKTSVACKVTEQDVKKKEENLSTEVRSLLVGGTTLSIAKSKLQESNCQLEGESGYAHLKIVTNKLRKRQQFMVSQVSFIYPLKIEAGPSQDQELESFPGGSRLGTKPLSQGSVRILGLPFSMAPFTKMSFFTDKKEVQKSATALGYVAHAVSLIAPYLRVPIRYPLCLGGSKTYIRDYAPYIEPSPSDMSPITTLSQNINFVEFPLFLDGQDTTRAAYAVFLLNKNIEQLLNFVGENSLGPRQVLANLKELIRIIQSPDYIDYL
The experiment in a line: two-hybrid; split-ubiquitin (Protein A/LexA/VP16) mating system; baits on Cub-PLV, preys on NubG; diploid THY.AP4 THY.AP5 yeast, growth on medium lacking histidine, leucine, tryptophan, uracil and adenine.

Assay [3] has as its target T3, Arabidopsis VPS38 (VACUOLAR PROTEIN SORTING-38) fused to the GAL4 DNA-binding domain (Arabidopsis thaliana) (UniProt Q8S9J3).
T3 sequence: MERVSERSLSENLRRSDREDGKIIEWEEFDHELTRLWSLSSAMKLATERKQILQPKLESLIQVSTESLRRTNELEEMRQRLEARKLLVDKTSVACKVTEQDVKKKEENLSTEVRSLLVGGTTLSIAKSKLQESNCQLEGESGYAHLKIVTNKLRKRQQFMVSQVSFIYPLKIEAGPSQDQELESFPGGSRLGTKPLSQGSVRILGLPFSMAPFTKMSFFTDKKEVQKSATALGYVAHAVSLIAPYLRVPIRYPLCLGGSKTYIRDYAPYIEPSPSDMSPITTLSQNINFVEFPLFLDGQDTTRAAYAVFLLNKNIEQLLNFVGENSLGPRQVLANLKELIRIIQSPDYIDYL
Nature of the assay: two-hybrid; GAL4-based Y2H, HIS3 reporter; VPS38 on the DNA-binding domain, ATG6 on the activation domain; yeast MaV203, 2-day growth at 30°C on medium lacking histidine, leucine and tryptophan with 25 mM 3-amino-1,2,4-triazole.

B1: Arabidopsis VPS15, split-YFP fusion (nYFP or cYFP) for BiFC (protein, UniProt Q9M0E5 1-1494)
chain: MGNKIARTTQVSATEYYLHDLPSSYNLVLKEVLGRGRFLKSIQCKHDEGLVVVKVYFKRGDSIDLREYERRLVKIKDVFLSLEHPHVWPFQFWQETDKAAYLVRQYFYSNLHDRLSTRPFLSLVEKKWLAFQLLLAVKQCHEKDICHGDIKCENVLLTSWNWLYLADFASFKPTYIPYDDPSDFSFFFDTRGQRLCYLAPERFYEHGGETQVAQDAPLKPSMDIFAVGCVIAELFLEGQPLFELAQLLAYRRGQHDPSQHLEKIPDPGIRKMILHMIQLEPEARLSAEDYLQNYVGVVFPNYFSPFLHTLYCCWNPLPSDMRVATCQGIFQEILKKMMENKSGDEIGVDSPVTSNPMNASTVQETFANHKLNSSKDLIRNTVNSKDEIFYSISDALKKNRHPFLKKITMDDLGTLMSLYDSRSDTYGTPFLPVEGNMRCEGMVLIASMLCSCIRNIKLPHLRREAILLLRSCSLYIDDDDRLQRVLPYVVALLSDPTAIVRCAAMETLCDILPLVRDFPPSDAKIFPEYIFPMLSMLPEDTEESVRICYASNIAKLALTAYGFLIHSFQLSDVGVLNELNSQQISTTPASETPSHLQKANGNAQLQQLRKTIAEVVQELVMGPKQTPNVRRALLQDIGELCFFFGQRQSNDFLLPILPAFLNDRDEQLRSVFFEKIVYVCFFVGQRSVEEYLLPYIDQALSDQTEAVIVNALECLSTLCKSSFLRKRALLQMIECVYPLLCYPSQWVRRAVVTFIAASSECLGAVDSYAFIAPVIRSYLSRLPASIASEEGLLSCLKPPVTREVVYRIFEKTRNPEFMAKQRKMWYSSSPQSKDWESVDLFDKDAGELNSVECRAEQKQSVEGKKQIKSASKQPEVQGKYAEKDAKLRIPRNPRPNASNTVELRDPVYPEKLQFSGFMAPYVSGANSFIEPENIPLYSFSMDKRAATNPPVASESSLQMNSLGMGSLSVPWMDSMSKSFNLASSVPVPKLISGSFHVGTNPKQFYRVVHEPESRENDQISSAISKFQDLGVSSSSKSASVTSEDASSPADLVGEPSLSRTSVPDSGWKPRGVLVAHLQEHRSAVNDIATSSDHSFFVSASDDSTVKVWDSRKLEKDISFRSRLTYHLEGSRGMCTTMLRNSTQVVVGASDGVIHMFSIDHISRGLGNVVEKYSGIVDIKKKDVKEGALVSLLNYTADSLSGPMVMYSTQNCGIHLWDTRSDLDAWTLKANPEEGYVSSLVTSPCGNWFVSGSSRGVLTLWDLRFRVPVNSWQYPIICPIEKMCLCFLPPSVSVSTTMKPLIYVAAGCNEVSLWNAEGGSCHQVLRVANYENETDVSEFQWKLPSNKVNPKPNHRQNMSSKYRIEELNEPPPRLPGIRSLLPLPGGDLLTGGTDLKIRRWDYSSPERSYCICGPSLKGVGNDDFYELKTNTGVQFVQETKRRPLATKLTAKAVLAAAATDTAGCHRDSVQSLASVKLNQRLLISSSRDGAIKVWK
On to B1, for which, in assay [1], the binding entry is reported as “binds”.

B2: Arabidopsis VPS15, split-ubiquitin fusion (Cub-PLV bait or NubG prey) (protein, UniProt Q9M0E5 1-1494)
chain: MGNKIARTTQVSATEYYLHDLPSSYNLVLKEVLGRGRFLKSIQCKHDEGLVVVKVYFKRGDSIDLREYERRLVKIKDVFLSLEHPHVWPFQFWQETDKAAYLVRQYFYSNLHDRLSTRPFLSLVEKKWLAFQLLLAVKQCHEKDICHGDIKCENVLLTSWNWLYLADFASFKPTYIPYDDPSDFSFFFDTRGQRLCYLAPERFYEHGGETQVAQDAPLKPSMDIFAVGCVIAELFLEGQPLFELAQLLAYRRGQHDPSQHLEKIPDPGIRKMILHMIQLEPEARLSAEDYLQNYVGVVFPNYFSPFLHTLYCCWNPLPSDMRVATCQGIFQEILKKMMENKSGDEIGVDSPVTSNPMNASTVQETFANHKLNSSKDLIRNTVNSKDEIFYSISDALKKNRHPFLKKITMDDLGTLMSLYDSRSDTYGTPFLPVEGNMRCEGMVLIASMLCSCIRNIKLPHLRREAILLLRSCSLYIDDDDRLQRVLPYVVALLSDPTAIVRCAAMETLCDILPLVRDFPPSDAKIFPEYIFPMLSMLPEDTEESVRICYASNIAKLALTAYGFLIHSFQLSDVGVLNELNSQQISTTPASETPSHLQKANGNAQLQQLRKTIAEVVQELVMGPKQTPNVRRALLQDIGELCFFFGQRQSNDFLLPILPAFLNDRDEQLRSVFFEKIVYVCFFVGQRSVEEYLLPYIDQALSDQTEAVIVNALECLSTLCKSSFLRKRALLQMIECVYPLLCYPSQWVRRAVVTFIAASSECLGAVDSYAFIAPVIRSYLSRLPASIASEEGLLSCLKPPVTREVVYRIFEKTRNPEFMAKQRKMWYSSSPQSKDWESVDLFDKDAGELNSVECRAEQKQSVEGKKQIKSASKQPEVQGKYAEKDAKLRIPRNPRPNASNTVELRDPVYPEKLQFSGFMAPYVSGANSFIEPENIPLYSFSMDKRAATNPPVASESSLQMNSLGMGSLSVPWMDSMSKSFNLASSVPVPKLISGSFHVGTNPKQFYRVVHEPESRENDQISSAISKFQDLGVSSSSKSASVTSEDASSPADLVGEPSLSRTSVPDSGWKPRGVLVAHLQEHRSAVNDIATSSDHSFFVSASDDSTVKVWDSRKLEKDISFRSRLTYHLEGSRGMCTTMLRNSTQVVVGASDGVIHMFSIDHISRGLGNVVEKYSGIVDIKKKDVKEGALVSLLNYTADSLSGPMVMYSTQNCGIHLWDTRSDLDAWTLKANPEEGYVSSLVTSPCGNWFVSGSSRGVLTLWDLRFRVPVNSWQYPIICPIEKMCLCFLPPSVSVSTTMKPLIYVAAGCNEVSLWNAEGGSCHQVLRVANYENETDVSEFQWKLPSNKVNPKPNHRQNMSSKYRIEELNEPPPRLPGIRSLLPLPGGDLLTGGTDLKIRRWDYSSPERSYCICGPSLKGVGNDDFYELKTNTGVQFVQETKRRPLATKLTAKAVLAAAATDTAGCHRDSVQSLASVKLNQRLLISSSRDGAIKVWK
On to B2, for which the binding entry in assay [2] is listed as “binds”.

B3: Arabidopsis ATG6 (VPS30/Beclin1) fused to the GAL4 activation domain (protein, UniProt Q9M367 1-517)
chain: MRKEEIPDKSRTIPIDPNLPKWVCQNCHHSLTIVGVDSYAGKFFNDPPPSATQGSSIHGANSVLGSTRMDNSFVVLPRHKPPQSQGIPPRPRGASSPQPDATQSGKAMEESFVVVYKSEPVSDSGGSHNLSLEVGQNGPLHSNTSGFNATINVLTRAFDIARTQTQVEQPLCLECMRVLSDKLEKEVEDVTRDVEAYEACVQRLEGETQDVLSEADFLKEKKKIEEEERKLVAAIEETEKQNAEVNHQLKELEFKGNRFNELEDRYWQEFNNFQFQLIAHQEERDAILAKIEVSQAHLELLNKTNVLIDAFPIRNDGEFGTINNFRLGRLPAIKVEWDEINAAWGQACLLLHTMCNYFRPKFQCQVKIQPMGSYPRIVDSNNETYELFGPVNLFWSTRYDKAMTLYLMCLKDFADFANSKDQENNIPPDNCLNLPYKIEKDKVLGYSITQSFNKQESWTKALKYTLCNLKWALYWFVGNTNFQPLSATVSLPSNISAAGSLYAKRGPDSSKPSCKKT
In the case of B3, the binding result in assay [3] is recorded as “binds”.

B4: Arabidopsis VPS38, split-YFP fusion (nYFP or cYFP) for BiFC (protein, UniProt Q8S9J3 1-352)
chain: MERVSERSLSENLRRSDREDGKIIEWEEFDHELTRLWSLSSAMKLATERKQILQPKLESLIQVSTESLRRTNELEEMRQRLEARKLLVDKTSVACKVTEQDVKKKEENLSTEVRSLLVGGTTLSIAKSKLQESNCQLEGESGYAHLKIVTNKLRKRQQFMVSQVSFIYPLKIEAGPSQDQELESFPGGSRLGTKPLSQGSVRILGLPFSMAPFTKMSFFTDKKEVQKSATALGYVAHAVSLIAPYLRVPIRYPLCLGGSKTYIRDYAPYIEPSPSDMSPITTLSQNINFVEFPLFLDGQDTTRAAYAVFLLNKNIEQLLNFVGENSLGPRQVLANLKELIRIIQSPDYIDYL
For the molecule B4, the binding result in assay [1] is given as “binds”.
